These results are taken from publication PMC7542355.

By UniProt entry, the sequences of proteins in these tests, tags left out. Where a name states a change or a piece, a line headed by the entry shows the natural chain unless it says otherwise.
UniProt O77310: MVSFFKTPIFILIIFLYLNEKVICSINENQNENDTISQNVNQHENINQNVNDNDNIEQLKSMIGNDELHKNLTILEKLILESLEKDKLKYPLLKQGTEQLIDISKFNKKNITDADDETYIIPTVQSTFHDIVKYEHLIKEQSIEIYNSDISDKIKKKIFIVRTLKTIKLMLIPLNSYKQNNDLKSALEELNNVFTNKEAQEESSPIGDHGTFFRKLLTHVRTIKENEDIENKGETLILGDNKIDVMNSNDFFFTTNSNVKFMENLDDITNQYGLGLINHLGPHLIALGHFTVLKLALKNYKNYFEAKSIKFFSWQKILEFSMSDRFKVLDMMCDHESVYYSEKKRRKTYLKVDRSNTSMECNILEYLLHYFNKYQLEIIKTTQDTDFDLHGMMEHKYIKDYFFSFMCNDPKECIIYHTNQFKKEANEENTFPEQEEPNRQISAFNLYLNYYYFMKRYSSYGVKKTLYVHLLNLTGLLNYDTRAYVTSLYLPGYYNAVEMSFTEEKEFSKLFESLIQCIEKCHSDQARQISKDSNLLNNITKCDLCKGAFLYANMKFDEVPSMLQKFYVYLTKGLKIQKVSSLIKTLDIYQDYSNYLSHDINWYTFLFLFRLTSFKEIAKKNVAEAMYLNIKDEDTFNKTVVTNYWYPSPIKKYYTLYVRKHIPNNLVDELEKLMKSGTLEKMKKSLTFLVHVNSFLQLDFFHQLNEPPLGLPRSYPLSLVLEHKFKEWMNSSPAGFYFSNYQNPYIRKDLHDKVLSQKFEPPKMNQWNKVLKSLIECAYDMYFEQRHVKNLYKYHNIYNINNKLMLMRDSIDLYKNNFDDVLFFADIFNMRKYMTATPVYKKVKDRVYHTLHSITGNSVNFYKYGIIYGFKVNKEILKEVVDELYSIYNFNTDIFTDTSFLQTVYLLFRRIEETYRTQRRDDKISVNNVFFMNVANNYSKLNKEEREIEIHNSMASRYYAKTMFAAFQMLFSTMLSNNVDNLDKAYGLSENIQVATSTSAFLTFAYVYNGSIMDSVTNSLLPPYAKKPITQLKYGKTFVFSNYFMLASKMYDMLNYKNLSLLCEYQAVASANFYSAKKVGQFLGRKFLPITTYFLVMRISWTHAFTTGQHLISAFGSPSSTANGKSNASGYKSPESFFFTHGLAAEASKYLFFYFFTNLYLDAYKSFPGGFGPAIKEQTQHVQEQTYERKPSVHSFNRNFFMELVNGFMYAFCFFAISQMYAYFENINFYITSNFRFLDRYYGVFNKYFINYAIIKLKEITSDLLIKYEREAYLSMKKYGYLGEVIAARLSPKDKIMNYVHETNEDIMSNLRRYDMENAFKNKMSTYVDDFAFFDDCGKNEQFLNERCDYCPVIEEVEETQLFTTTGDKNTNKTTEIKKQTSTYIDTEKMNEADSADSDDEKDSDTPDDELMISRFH

Results are given in words; binding and its absence hold for the method and conditions named. In cells and extracts the contact can be indirect. Binding calls can cover weak binding; strength is not graded here.

For this test, the target named is T1, Rhoptry protein RhopH3 (Plasmodium falciparum (endogenous in 3D7 parasites)) (UniProt Q8I395).
T1 sequence: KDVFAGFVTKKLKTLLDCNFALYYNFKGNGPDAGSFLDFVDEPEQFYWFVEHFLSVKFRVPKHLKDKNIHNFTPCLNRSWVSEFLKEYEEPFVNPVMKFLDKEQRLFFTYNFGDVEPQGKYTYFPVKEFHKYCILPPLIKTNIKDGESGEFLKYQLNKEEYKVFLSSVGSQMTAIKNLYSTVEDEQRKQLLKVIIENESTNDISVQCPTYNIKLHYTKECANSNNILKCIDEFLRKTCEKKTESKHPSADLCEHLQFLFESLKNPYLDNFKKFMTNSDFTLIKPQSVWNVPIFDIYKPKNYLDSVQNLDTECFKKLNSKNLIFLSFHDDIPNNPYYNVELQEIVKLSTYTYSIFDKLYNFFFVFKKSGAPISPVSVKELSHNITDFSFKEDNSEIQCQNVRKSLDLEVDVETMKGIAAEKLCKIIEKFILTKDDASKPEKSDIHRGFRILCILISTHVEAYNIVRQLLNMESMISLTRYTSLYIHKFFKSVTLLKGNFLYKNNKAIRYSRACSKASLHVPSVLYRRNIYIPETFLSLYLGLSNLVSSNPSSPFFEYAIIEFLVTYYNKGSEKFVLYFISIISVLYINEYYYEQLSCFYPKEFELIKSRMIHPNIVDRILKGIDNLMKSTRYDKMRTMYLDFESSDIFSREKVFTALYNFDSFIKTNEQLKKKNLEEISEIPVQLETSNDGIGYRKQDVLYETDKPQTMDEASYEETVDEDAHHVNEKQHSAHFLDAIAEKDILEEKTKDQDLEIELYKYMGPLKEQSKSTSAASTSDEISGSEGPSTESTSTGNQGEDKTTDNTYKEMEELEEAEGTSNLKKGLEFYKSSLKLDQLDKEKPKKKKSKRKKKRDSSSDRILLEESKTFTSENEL
As to the kind of experiment: co-IP; RhopH3 immunoprecipitated from an equal amount of 3D7 or R3_S804A schizont lysate; Western blot with Clag3.1 antibody.

On to Clag3.1 (from UniProt O77310), for which the binding result is “binds”.
